# According to US12076331B2, “Inositol derivatives for use in pathological crystallization” (ETH Zurich, priority 2015, dated 2024):
# System: high phosphate-induced kidney damage
# Assay: mouse model of high phosphate-induced kidney damage
# Format: in vivo, C57BL/6 male mice
# Conditions: 100 mg/kg 3 times/week subcutaneously
# Experimental: C57BL/6 male were placed on either regular diet containing 0.35% inorganic phosphate (NP) or high phosphate diet containing 2.0% inorganic phosphate (HP). These mice were subcutaneously injected with either (OEG2)2-IP4 (100 mg/kg) or vehicle (distilled water) three times a week and then sacrificed at 20 weeks of age to harvest their blood and kidneys. Relative mRNA levels of (A) Spp1, (B) IL36a, (C) Ngal, (D) MMP3 and (E) Col1a1 in kidney tissue homogenate are shown (mean±SD, N=7, except HP vehicle group N=6, two-way ANOVA with Sidak's multiple comparison between (OEG2)2-IP4 vs. vehicle control within the respective diet group, ns—not significant, * p<0.05). […]
# C57BL/6 male mice (12 weeks of age) were placed on either regular diet containing 0.35% inorganic phosphate or high phosphate diet containing 2.0% inorganic phosphate. […] Serum FGF23 levels were measured using intact FGF23 ELISA (Kinos) according to the manufacturers' protocols. Serum and urine levels of phosphate were measured using Fuji Dri-Chem slides and the analyzer (Dri-Chem NX500V, Fuji, Tokyo, Japan). […] Quantitative RT-PCR reactions were performed using 20 ng of cDNA incubated with 410 nM of each primer and 6 μL of SYBR Green PCR Master mix (Toyoba, Osaka, Japan THUNDERBIRD SYBR qPCR Mix QPS-201) in a total volume of 12 μl. […] The cortex and the cortico-medullary junction were evaluated separately. […]
structure (smiles),measurement,setting,value
COCCOCCO[C@@H]1C(OP(=O)(O)O)[C@H](OCCOCCOC)[C@@H](OP(=O)(O)O)C(OP(=O)(O)O)[C@H]1OP(=O)(O)O (some centres unmarked) [(OEG2)2-IP4],"urinary phosphate excretion, treatment vs vehicle group",,no significant difference
same,"serum phosphate, CaP or urine calcium, treatment vs vehicle group",end of the treatment period,no significant differences
